These are yes or no findings as the source states them, for the method shown.

From publication PMC4881023, “SALM5 trans-synaptically interacts with LAR-RPTPs in a splicing-dependent manner to regulate synapse development” (Scientific Reports, 2016) come the findings set out here.

In test [1] the target is SALM5-Ecto-pDis (not stated (mouse and human SALM5 are named for other constructs)) (UniProt Q8BXA0). Put plainly: cell aggregation assay; two groups of transfected L cells (EGFP + SALM construct; DsRed + LAR-RPTP construct) trypsinized, resuspended in DMEM, mixed and rotated at room temperature for 2 hours; average aggregate size.
A further test has as its target SALM4-Ecto-pDis (UniProt Q8BLY3). Described as above.

B1: SALM5-Ecto-pDis (domain or fragment, UniProt Q8BXA0 18-529)
chain: QICPKRCVCQILSPNLATLCAKKGLLFVPPNIDRRTVELRLADNFVTNIKRKDFANMTSLVDLTLSRNTISFITPHAFADLRNLRALHLNSNRLTKITNDMFSGLSNLHHLILNNNQLTLISSTAFDDVFALEELDLSYNNLETIPWDAVEKMVSLHTLSLDHNMIDNIPKGTFSHLHKMTRLDVTSNKLQKLPPDPLFQRAQVLATSGIISPSTFALSFGGNPLHCNCELLWLRRLSREDDLETCASPALLTGRYFWSIPEEEFLCEPPLITRHTHEMRVLEGQRATLRCKARGDPEPAIHWISPEGKLISNATRSLVYDNGTLDILITTVKDTGAFTCIASNPAGEATQTVDLHIIKLPHLLNSTNHIHEPDPGSSDISTSTKSGSNASSSNGDTKMSQDKIVVAEATSSTALLKFNFQRNIPGIRMFQIQYNGTYDDTLVYRMIPPTSKTFLVNNLASGTMYDLCVLAIYDDGITSLTATRVVGCIQFTTEQDYVRCHFMQSQFLGGTM
For the molecule B1, in test [1], the binding result is “no binding”.

B2: SALM4-Ecto-pDis (domain or fragment, UniProt Q8BLY3 17-539)
chain: SSPPQPAISSPCPRRCRCQTQSMPLSVLCPGAGLLFVPPSLDRRAAELRLADNFIAAVRRRDLANMTGLLHLSLSRNTIRHVAAGAFADLRALRALHLDGNRLTSLGEGQLRGLVNLRHLILSNNQLAALAAGALDDCAETLEDLDLSYNNLEQLPWEALGRLGNVNTLGLDHNLLASVPAGAFSRLHKLARLDMTSNRLTTIPPDPLFSRLPLLARPRGSPASALVLAFGGNPLHCNCELVWLRRLAREDDLEACASPPALGGRYFWAVGEEEFVCEPPVVTHRSPPLAVPAGRPAALRCRAVGDPEPRVRWVSPQGRLLGNSSRARAFPNGTLELLVTEPEDGGTFTCIAANAAGEATAAVELTVGPPPPPQLANSTSCDPPRDGEPDALTPPSAASASAKVADTVAPTDRGVQVTEHGATAALVQWPDQRPVPGIRMYQIQYNSSADDILVYRMIPADSRSFLLTDLASGRTYDLCVLAVYEDSATGLTATRPVGCARFSTEPALRPCAAPHAPFLGGTM
B2: the binding result with SALM4-Ecto-pDis is “no binding”.
